Binding data for one molecule are collected here from article PMC9927233.

By UniProt entry, the sequences of proteins in these tests, tags left out.
UniProt O81445: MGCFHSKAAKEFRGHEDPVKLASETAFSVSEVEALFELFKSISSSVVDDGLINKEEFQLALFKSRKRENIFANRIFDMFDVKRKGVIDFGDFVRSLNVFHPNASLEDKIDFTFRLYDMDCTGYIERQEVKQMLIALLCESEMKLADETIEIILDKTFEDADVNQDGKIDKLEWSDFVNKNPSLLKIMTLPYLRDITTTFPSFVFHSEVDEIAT

In the assay the target is SCFPN::CBL1 (UniProt O81445). The experiment in a line: split reporter; BiFC with split CFP (SCFPN/SCFPC) in N. benthamiana leaf epidermal cells, 35S promoter, confocal microscopy 3 to 5 days after infiltration.

Results are given in words; binding and its absence hold for the method and conditions named. Binding seen in cells or lysates may run through a third protein. Some results given as binding are weak or reduced against the parent protein; the word gives no strength.

B1: CIPK24::SCFPC (protein, UniProt Q9LDI3 1-446)
chain: MTKKMRRVGKYEVGRTIGEGTFAKVKFARNTDTGDNVAIKIMAKSTILKNRMVDQIKREISIMKIVRHPNIVRLYEVLASPSKIYIVLEFVTGGELFDRIVHKGRLEESESRKYFQQLVDAVAHCHCKGVYHRDLKPENLLLDTNGNLKVSDFGLSALPQEGVELLRTTCGTPNYVAPEVLSGQGYDGSAADIWSCGVILFVILAGYLPFSETDLPGLYRKINAAEFSCPPWFSAEVKFLIHRILDPNPKTRIQIQGIKKDPWFRLNYVPIRAREEEEVNLDDIRAVFDGIEGSYVAENVERNDEGPLMMNAFEMITLSQGLNLSALFDRRQDFVKRQTRFVSRREPSEIIANIEAVANSMGFKSHTRNFKTRLEGLSSIKAGQLAVVIEIYEVAPSLFMVDVRKAAGETLEYHKFYKKLCSKLENIIWRATEGIPKSEILRTITF
For B1, the binding entry is “binds”.
